In patent US20060281736A1, “Product comprising at least one phosphatase cdc25 inhibitor combined with at least one other anticancer agent” (priority 2003, published 2006):
Where a name gives a salt, the structure may show the parent alone. Some of these results come from one statement about several compounds together. For at least one compound, name, drawing or mass did not settle the structure.

Target: T1, MBP-Cdc25C protein (Homo sapiens, UniProt P30307)
T1 construct: made in house
T1 sequence (P30307 1-473): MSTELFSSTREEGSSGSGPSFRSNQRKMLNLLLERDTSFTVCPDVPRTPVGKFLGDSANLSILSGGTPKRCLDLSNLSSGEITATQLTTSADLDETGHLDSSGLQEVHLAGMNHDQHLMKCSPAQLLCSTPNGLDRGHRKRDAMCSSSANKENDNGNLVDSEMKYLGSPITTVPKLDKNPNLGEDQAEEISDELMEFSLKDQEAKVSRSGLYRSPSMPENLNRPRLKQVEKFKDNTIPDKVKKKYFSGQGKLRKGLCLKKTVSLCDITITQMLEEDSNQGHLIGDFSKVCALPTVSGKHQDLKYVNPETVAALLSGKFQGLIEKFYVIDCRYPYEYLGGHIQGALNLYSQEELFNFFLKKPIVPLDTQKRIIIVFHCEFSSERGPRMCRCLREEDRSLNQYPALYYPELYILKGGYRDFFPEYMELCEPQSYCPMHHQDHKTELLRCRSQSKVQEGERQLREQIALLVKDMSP
Test: Phosphatase activity of the purified Cdc25C recombinant enzyme (OMFP dephosphorylation)
Assay type: biochemical
Settings: OMFP 500 μM, 4 hours at 30° C.; read-out: IC50 on the phosphatase activity of the purified Cdc25-C recombinant enzyme

Row | Molecule | IC50 [µM]
1 | CCCCCC(CC)NC1=CC(=O)c2sc(C)nc2C1=O (centres unmarked) [Example 6, 5-[(1-ethylhexyl)amino]-2-methyl-1,3-benzothiazole-4,7-dione] | ≤ 10
2 | CCCNC1=CC(=O)c2sc(C)nc2C1=O [Example 11, 2-methyl-5-(propylamino)-1,3-benzothiazole-4,7-dione] | ≤ 10
3 | Cc1nc2c(s1)C(=O)C=C(NCCCCN(C)C)C2=O [Example 26, 5-{[4-(dimethylamino)butyl]amino}-2-methyl-1,3-benzothiazole-4,7-dione] | ≤ 10
4 | Cc1nc2c(s1)C(=O)C=C(NCCN(C(C)C)C(C)C)C2=O [Example 21, 5-{[2-(diisopropylamino)ethyl]amino}-2-methyl-1,3-benzothiazole-4,7-dione] | ≤ 10
5 | CN(C)CCNC1=CC(=O)c2sc(CN3CCCCC3)nc2C1=O [Example 39, 5-{[2-(dimethylamino)ethyl]amino}-2-(piperidin-1-ylmethyl)-1,3-benzothiazole-4,7-dione] | ≤ 10
6 | Cc1nc2c(s1)C(=O)C(Br)=C(NCCN(C)C)C2=O [Example 35, 6-bromo-5-{[2-(dimethylamino)ethyl]amino}-2-methyl-1,3-benzothiazole-4,7-dione] | ≤ 10
7 | CN(C)CCNC1=CC(=O)c2sc(CN3CCN(c4ccccc4)CC3)nc2C1=O [Example 38, 5-{1[2-(dimethylamino)ethyl]amino}-2-[(4-phenylpiperazin-1-yl)methyl]-1,3-benzothiazole-4,7-dione] | ≤ 10
8 | Cc1nc2c(s1)C(=O)C=C(NCCc1ccc(S(N)(=O)=O)cc1)C2=O [Example 13, 4-{2-[(2-methyl-4,7-dioxo-4,7-dihydro-1,3-benzothiazol-5-yl)amino]ethyl}benzenesulphonamide] | ≤ 10
9 | Cc1nc2c(s1)C(=O)C=C(NC1CCN(Cc3ccccc3)C1)C2=O (centres unmarked) [Example 22, 5-[(1-benzylpyrrolidin-3-yl)amino]-2-methyl-1,3-benzothiazole-4,7-dione] | ≤ 10
10 | Cc1nc2c(s1)C(=O)C=C(NCc1ccncc1)C2=O [Example 10, 2-methyl-5-[(4-pyridinylmethyl)amino]-1,3-benzothiazole-4,7-dione] | ≤ 10
11 | Cc1nc2c(s1)C(=O)C=C(NC1CCc3ccccc31)C2=O (centres unmarked) [Example 28, 5-(2,3-dihydro-1H-inden-1-ylamino)-2-methyl-1,3-benzothiazole-4,7-dione] | ≤ 10
12 | COCCNC1=CC(=O)c2sc(C)nc2C1=O [Example 18, 5-[(2-methoxyethyl)amino]-2-methyl-1,3-benzothiazole-4,7-dione] | ≤ 10
13 | Cc1nc2c(s1)C(=O)C=C(NCCN1CCOCC1)C2=O [Example 1, 2-methyl-5-{[2-(4-morpholinyl)ethyl]amino}-1,3-benzothiazole-4,7-dione] | ≤ 10
14 | Cc1nc2c(s1)C(=O)C=C(NCC13CC4CC(CC(C4)C1)C3)C2=O [Example 7, 5-[(1-adamantylmethyl)amino]-2-methyl-1,3-benzothiazole-4,7-dione] | ≤ 10
15 | Cc1nc2c(s1)C(=O)C=C(NCCCCCN(C)C)C2=O [Example 27, 5-{[5-(dimethylamino)pentyl]amino}-2-methyl-1,3-benzothiazole-4,7-dione] | ≤ 10
16 | Cc1nc2c(s1)C(=O)C=C(N1CCN(Cc3ccccc3)CC1)C2=O [Example 14, 5-(4-benzyl-1-piperazinyl)-2-methyl-1,3-benzothiazole-4,7-dione] | ≤ 10
17 | CCCCSC1=C(NCCN(C)C)C(=O)c2nc(C)sc2C1=O [Example 36, 6-(butylthio)-5-{[2-(dimethylamino)ethyl]amino}-2-methyl-1,3-benzothiazole-4,7-dione] | ≤ 10
18 | Cc1nc2c(s1)C(=O)C=C(NCC(C)(C)CN(C)C)C2=O [Example 4, 5-{[3-(dimethylamino)-2,2-dimethylpropyl]amino}-2-methyl-1,3-benzothiazole-4,7-dione] | ≤ 10
19 | Cc1nc2c(s1)C(=O)C=C(NCc1cccs1)C2=O [Example 8, 2-methyl-5-[(2-thienylmethyl)amino]-1,3-benzothiazole-4,7-dione] | ≤ 10

Row | Molecule | IC50 [µM]
20 | CCc1nc2c(o1)C(=O)C(C)=C(NCCN(C)C)C2=O [Example 55, 5-{[2-(dimethylamino)ethyl]amino}-2-ethyl-6-methyl-1,3-benzoxazole-4,7-dione] | ≤ 10
21 | Cc1nc2c(s1)C(=O)C=C(NCCCN1CCN(C)CC1)C2=O [Example 5, 2-methyl-5-{[3-(4-methyl-1-piperazinyl)propyl]amino}-1,3-benzothiazole-4,7-dione] | ≤ 10
22 | Cc1nc2c(s1)C(=O)C(Cl)=C(NCCN(C)C)C2=O [Example 34, 6-chloro-5-{[2-(dimethylamino)ethyl]amino}-2-methyl-1,3-benzothiazole-4,7-dione] | ≤ 10
23 | CCc1nc2c(o1)C(=O)C(Br)=C(NCCN(C)C)C2=O [Example 54, 6-bromo-5-{[2-(dimethylamino)ethyl]amino}-2-ethyl-1,3-benzoxazole-4,7-dione or 5-bromo-6-{[2-(dimethylamino)ethyl]amino}-2-ethyl-1,3-benzoxazole-4,7-dione] | ≤ 10
24 | CNCCCNC1=CC(=O)c2sc(C)nc2C1=O [Example 32, 2-methyl-5-{[3-(methylamino)propyl]amino}-1,3-benzothiazole-4,7-dione hydrochloride] | ≤ 10
25 | Cc1nc2c(s1)C(=O)C=C(NCCN1CCCCC1)C2=O [Example 20, 2-methyl-5-[(2-piperidin-1-ylethyl)amino]-1,3-benzothiazole-4,7-dione] | ≤ 10
26 | Cc1nc2c(s1)C(=O)C=C(NCCCN(C)C(=O)OC(C)(C)C)C2=O [Example 30, tert-butyl methyl{3-[(2-methyl-4,7-dioxo-4,7-dihydro-1,3-benzothiazol-5-yl)amino]propyl}carbamate] | ≤ 10
27 | Cc1nc2c(s1)C(=O)C=C(NCc1cccc(Cl)c1)C2=O [Example 9, 5-[(3-chlorobenzyl)amino]-2-methyl-1,3-benzothiazole-4,7-dione] | ≤ 10
28 | Cc1nc2c(s1)C(=O)C=C(N(CCN(C)C)Cc1ccccc1)C2=O [Example 29, 5-{benzyl[2-(dimethylamino)ethyl]amino}-2-methyl-1,3-benzothiazole-4,7-dione] | ≤ 10
29 | Cc1nc2c(s1)C(=O)C=C(NCCCN(C)C)C2=O [Example 23, 5-{[3-(dimethylamino)propyl]amino}-2-methyl-1,3-benzothiazole-4,7-dione] | ≤ 10
30 | Cc1nc2c(s1)C(=O)C=C(NCCCN1CCCCC1C)C2=O (centres unmarked) [Example 25, 2-methyl-5-{[3-(2-methylpiperidin-1-yl)propyl]amino)-1,3-benzothiazole-4,7-dione] | ≤ 10
31 | Cc1nc2c(s1)C(=O)C=C(NCCC1CCCN1C)C2=O (centres unmarked) [Example 24, 2-methyl-5-{[2-(1-methylpyrrolidin-2-yl)ethyl]amino}-1,3-benzothiazole-4,7-dione] | ≤ 10
32 | 5-[(1-ethylhexyl)amino]-2-phenyl-1,3-benzoxazole-4,7-dione or 6-[(1-ethylhexyl)amino]-2-phenyl-1,3-benzoxazole-4,7-dione [Example 59] | ≤ 10
33 | Cc1nc2c(s1)C(=O)C=C(NCCN(C)C)C2=O.Cl [Example 2, 5-{[2-(dimethylamino)ethyl]amino}-2-methyl-1,3-benzothiazole-4,7-dione hydrochloride] | ≤ 10
34 | Cc1nc2c(s1)C(=O)C=C(NCCN1CCCC1)C2=O [Example 19, 2-methyl-5-[(2-pyrrolidin-1-ylethyl)amino]-1,3-benzothiazole-4,7-dione] | ≤ 10
35 | Cc1nc2c(s1)C(=O)C=C(NCCCNC(=O)OC(C)(C)C)C2=O [Example 31, tert-butyl 3-[(2-methyl-4,7-dioxo-4,7-dihydro-1,3-benzothiazol-5-yl)amino]propylcarbamate] | ≤ 10
36 | CN(C)CCNC1=CC(=O)c2sc(CN3CCOCC3)nc2C1=O [Example 37, 5-{[2-(dimethylamino)ethyl]amino}-2-(morpholin-4-ylmethyl)-1,3-benzothiazole-4,7-dione] | ≤ 10
37 | Cc1nc2c(s1)C(=O)C=C(NCCCCCCN(C)C)C2=O [Example 3, 5-{[6-(dimethylamino)hexyl]amino}-2-methyl-1,3-benzothiazole-4,7-dione] | ≤ 10
38 | Cc1nc2c(s1)C(=O)C=C(NCCCn1ccnc1)C2=O [Example 12, 5-{[3-(1H-imidazol-1-yl)propyl]amino}-2-methyl-1,3-benzothiazole-4,7-dione] | ≤ 10
